Two substances from publication PMC6818353 can be followed below.

These are yes or no findings as the source states them, for the method shown. In cells and extracts the contact can be indirect. Some results given as binding are weak or reduced against the parent protein; the word gives no strength. Sequences can lack the tags named with a protein.

For this assay, the target named is T1, V5-His6-tagged RIOK3 expressed in HEK293T cells (human) (UniProt O14730).
T1 sequence: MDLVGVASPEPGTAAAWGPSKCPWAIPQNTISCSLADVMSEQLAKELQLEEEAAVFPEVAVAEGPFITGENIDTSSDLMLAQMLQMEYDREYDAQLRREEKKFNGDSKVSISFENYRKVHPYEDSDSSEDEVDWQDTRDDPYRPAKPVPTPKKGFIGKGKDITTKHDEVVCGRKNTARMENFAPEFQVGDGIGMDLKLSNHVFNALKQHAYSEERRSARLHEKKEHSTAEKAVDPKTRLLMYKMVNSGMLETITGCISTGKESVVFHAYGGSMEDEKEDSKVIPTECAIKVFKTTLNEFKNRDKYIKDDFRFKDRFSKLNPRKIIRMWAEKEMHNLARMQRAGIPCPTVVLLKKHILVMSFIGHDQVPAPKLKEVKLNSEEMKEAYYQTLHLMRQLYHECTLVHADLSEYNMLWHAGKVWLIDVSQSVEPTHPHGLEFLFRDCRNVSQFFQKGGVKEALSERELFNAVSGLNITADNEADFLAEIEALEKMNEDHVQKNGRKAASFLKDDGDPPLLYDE
Put plainly: co-IP; V5-His6-RIOK3 co-transfected in HEK293T with HA-tagged wt, K63- or K48-specific ubiquitin; lysate immunoprecipitated with anti-V5 or mouse IgG control; immunoblot with anti-HA. Background: A western blot detects proteins with antibodies after separation by electrophoresis.

Regarding “HA-Ub-K63 (K63-linked Ub chains) (from UniProt P0CG48 1-76)”, the binding result is listed as “binds”.

For “HA-Ub-K48 (K48-linked Ub chains) (from UniProt P0CG48 1-76)”, the binding entry is “no binding”.
